{"sequences": {"note": "The chains behind the UniProt entries cited, without tags or fusion partners.", "UniProt Q7Z6Z7": "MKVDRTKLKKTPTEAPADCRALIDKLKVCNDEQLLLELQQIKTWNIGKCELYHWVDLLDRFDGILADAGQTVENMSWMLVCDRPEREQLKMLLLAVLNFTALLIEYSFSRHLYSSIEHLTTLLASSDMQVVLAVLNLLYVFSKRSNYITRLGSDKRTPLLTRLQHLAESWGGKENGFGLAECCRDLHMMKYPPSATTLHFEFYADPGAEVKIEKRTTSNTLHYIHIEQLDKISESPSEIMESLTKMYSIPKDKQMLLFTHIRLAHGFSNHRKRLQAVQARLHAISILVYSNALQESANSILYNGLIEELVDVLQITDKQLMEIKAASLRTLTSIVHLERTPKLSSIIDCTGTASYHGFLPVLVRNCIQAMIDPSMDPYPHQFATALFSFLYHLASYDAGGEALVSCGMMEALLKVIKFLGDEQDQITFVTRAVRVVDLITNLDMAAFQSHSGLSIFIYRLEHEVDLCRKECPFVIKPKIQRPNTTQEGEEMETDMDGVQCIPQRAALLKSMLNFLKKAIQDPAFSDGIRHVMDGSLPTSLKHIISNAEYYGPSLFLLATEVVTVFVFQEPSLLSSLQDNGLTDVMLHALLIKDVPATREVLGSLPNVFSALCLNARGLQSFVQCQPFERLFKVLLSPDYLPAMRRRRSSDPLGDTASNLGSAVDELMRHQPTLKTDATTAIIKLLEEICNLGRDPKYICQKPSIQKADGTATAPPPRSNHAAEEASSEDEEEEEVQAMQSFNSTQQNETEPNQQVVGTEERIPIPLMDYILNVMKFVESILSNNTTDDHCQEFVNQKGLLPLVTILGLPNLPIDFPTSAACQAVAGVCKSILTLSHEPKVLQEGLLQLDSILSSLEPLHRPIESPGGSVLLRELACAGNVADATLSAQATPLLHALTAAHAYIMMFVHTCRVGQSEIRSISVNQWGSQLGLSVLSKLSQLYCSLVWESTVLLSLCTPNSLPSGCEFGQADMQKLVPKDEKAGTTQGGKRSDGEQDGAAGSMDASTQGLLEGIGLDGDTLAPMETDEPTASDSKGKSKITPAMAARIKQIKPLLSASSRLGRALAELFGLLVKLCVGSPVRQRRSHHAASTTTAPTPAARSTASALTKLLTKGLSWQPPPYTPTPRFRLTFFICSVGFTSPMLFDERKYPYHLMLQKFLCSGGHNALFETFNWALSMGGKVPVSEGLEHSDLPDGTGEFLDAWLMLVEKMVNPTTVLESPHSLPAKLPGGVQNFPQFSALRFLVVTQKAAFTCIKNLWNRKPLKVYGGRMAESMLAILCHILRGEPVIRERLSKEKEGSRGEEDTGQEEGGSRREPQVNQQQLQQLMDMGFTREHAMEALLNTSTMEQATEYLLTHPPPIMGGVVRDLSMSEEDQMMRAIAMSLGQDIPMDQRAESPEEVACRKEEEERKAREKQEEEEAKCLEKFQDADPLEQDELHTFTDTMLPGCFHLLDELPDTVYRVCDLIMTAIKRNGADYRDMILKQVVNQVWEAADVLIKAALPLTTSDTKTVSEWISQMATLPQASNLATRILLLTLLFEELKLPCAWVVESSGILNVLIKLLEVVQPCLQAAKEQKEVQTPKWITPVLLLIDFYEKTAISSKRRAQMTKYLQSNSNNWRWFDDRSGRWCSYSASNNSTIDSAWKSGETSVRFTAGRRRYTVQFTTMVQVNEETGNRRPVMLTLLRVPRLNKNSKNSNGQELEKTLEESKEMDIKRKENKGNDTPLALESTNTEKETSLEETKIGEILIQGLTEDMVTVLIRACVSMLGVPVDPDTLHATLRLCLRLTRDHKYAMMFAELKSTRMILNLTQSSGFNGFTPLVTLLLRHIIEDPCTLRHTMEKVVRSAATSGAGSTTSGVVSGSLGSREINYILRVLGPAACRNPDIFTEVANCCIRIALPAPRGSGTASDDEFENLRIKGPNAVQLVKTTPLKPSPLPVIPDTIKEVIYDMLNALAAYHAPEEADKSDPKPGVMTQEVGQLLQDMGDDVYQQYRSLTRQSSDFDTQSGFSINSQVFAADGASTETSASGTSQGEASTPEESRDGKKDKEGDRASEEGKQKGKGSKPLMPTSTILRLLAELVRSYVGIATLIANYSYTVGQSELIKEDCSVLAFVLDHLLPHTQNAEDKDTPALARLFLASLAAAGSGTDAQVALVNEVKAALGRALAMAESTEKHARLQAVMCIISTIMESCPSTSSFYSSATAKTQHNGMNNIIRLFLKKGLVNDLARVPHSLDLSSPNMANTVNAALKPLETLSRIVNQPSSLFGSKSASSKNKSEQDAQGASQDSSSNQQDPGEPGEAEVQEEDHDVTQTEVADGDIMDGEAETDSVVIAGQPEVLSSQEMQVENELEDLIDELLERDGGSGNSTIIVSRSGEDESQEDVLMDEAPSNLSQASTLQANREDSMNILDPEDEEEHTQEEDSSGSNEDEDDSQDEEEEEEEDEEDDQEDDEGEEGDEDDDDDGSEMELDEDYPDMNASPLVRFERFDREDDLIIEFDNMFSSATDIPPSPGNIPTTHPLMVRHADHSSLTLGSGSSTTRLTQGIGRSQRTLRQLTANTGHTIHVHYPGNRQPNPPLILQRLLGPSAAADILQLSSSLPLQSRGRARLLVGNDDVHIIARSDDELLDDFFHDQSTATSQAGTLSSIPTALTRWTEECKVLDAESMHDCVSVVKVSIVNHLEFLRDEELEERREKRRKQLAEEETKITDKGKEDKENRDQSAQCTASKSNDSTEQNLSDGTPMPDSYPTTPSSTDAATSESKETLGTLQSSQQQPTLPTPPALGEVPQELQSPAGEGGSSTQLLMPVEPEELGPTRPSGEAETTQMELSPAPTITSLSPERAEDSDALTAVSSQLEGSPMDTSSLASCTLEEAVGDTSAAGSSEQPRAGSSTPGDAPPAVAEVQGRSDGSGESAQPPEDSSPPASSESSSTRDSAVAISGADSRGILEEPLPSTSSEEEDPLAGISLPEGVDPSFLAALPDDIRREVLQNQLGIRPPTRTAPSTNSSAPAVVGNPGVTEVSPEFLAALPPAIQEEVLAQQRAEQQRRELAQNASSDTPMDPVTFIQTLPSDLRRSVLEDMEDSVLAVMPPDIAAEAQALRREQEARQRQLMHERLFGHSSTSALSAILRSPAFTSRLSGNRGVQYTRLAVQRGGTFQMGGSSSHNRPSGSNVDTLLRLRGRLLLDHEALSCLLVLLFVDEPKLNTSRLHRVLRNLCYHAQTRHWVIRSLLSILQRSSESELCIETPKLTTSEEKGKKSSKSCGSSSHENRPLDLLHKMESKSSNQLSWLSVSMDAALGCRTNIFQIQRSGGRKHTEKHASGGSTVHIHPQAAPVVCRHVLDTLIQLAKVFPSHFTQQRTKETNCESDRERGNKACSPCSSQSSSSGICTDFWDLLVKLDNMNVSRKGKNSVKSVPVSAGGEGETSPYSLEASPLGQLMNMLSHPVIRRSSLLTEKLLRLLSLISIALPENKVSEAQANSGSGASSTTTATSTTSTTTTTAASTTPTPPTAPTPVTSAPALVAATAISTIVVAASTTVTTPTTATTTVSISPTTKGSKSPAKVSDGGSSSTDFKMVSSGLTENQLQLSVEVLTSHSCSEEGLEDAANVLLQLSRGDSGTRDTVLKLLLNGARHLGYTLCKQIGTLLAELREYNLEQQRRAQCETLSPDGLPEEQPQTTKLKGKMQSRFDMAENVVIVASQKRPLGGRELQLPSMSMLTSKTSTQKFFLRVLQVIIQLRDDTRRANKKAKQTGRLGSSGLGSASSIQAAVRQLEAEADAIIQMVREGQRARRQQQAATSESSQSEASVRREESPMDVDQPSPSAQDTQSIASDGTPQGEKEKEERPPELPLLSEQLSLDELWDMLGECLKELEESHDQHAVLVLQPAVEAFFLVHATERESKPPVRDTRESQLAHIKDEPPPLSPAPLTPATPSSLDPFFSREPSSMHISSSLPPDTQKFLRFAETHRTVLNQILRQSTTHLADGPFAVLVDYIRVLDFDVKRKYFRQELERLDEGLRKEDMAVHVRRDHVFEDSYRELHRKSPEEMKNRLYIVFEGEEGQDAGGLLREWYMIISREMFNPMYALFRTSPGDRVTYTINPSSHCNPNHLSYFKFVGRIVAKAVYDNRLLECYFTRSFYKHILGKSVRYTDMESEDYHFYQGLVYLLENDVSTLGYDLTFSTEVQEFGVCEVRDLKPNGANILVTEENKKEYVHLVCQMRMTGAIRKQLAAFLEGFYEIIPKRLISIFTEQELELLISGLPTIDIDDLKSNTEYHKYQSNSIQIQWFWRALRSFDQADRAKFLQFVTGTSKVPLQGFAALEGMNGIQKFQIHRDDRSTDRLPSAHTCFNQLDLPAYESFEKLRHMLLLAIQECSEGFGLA"}, "source": "paper doi:10.1101/847996", "key": {"[1]": {"molecular_target": "T1, 3xFLAG-tagged C16orf72 (human) (UniProt Q14CZ0)", "T1 sequence": "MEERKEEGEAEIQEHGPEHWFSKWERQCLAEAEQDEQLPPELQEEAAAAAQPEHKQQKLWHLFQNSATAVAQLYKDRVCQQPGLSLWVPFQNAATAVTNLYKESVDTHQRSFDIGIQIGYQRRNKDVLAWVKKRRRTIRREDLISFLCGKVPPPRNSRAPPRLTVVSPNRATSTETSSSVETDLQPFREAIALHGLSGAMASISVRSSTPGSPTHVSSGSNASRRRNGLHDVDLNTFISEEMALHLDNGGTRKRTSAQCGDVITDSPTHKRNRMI", "assay": "co-IP"}, "[2]": {"molecular_target": "Hect ubiquitin E3 ligase HUWE1 (human (endogenous in HEK293T)) (UniProt Q7Z6Z7)", "assay": "co-IP"}}, "note": "No constants are given. Whether binding was seen depends on the method and setting. In cells and extracts the contact can be indirect. Some entries that bind do so weakly or less than the wild type. Tags and fused reporters may be left off the sequences shown.", "data": [{"molecule": "Hect ubiquitin E3 ligase HUWE1 (from UniProt Q7Z6Z7 1-4374) (enzyme)", "values": [{"measurement": "binding", "setting": "[1]", "value": "binds"}]}, {"molecule": "3xFLAG-tagged C16orf72 (protein, UniProt Q14CZ0 1-275) MEERKEEGEAEIQEHGPEHWFSKWERQCLAEAEQDEQLPPELQEEAAAAAQPEHKQQKLWHLFQNSATAVAQLYKDRVCQQPGLSLWVPFQNAATAVTNLYKESVDTHQRSFDIGIQIGYQRRNKDVLAWVKKRRRTIRREDLISFLCGKVPPPRNSRAPPRLTVVSPNRATSTETSSSVETDLQPFREAIALHGLSGAMASISVRSSTPGSPTHVSSGSNASRRRNGLHDVDLNTFISEEMALHLDNGGTRKRTSAQCGDVITDSPTHKRNRMI", "values": [{"measurement": "binding", "setting": "[2]", "value": "binds"}]}]}
